This is one part of the list. The data scatter; read single values as rough.
Legend:
[1] = compound: ClCC(=O)N[C@@H]1CCCc2ccccc12; assay: log2 mean competition ratio of IA-DTB cysteine labelling (DMSO/compound) (log2 ratio); higher = stronger cysteine engagement by compound; settings: treatment time: 4 h, cell line lysate: HEK293T
Method: (§1)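 IA-DTB competitive cysteine chemoproteomics in HEK293T RIPA lysate. Lysates were treated with compound 29 or 30 at 50 or 200 µM for 4 h, then IA-DTB (500 µM, 1 h), trypsin-digested, NeutrAvidin-enriched and analysed by diaPASEF. Competition ratio = intensity DMSO / intensity compound (n=4 treated, n=64 DMSO); binding: mean log2 CR ≥ 1 and p ≤ 0.05 plus QC filters. Target is the cysteine site.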

Sequences of proteins named here, by UniProt entry; tags and fusion partners are left off. A change or cut given only in a name is not applied to a line headed by its entry. Residues count along the entry.
UniProt Q68CP9, 1355-1374: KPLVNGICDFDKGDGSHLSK
UniProt Q68CP9, whole entry, looked up: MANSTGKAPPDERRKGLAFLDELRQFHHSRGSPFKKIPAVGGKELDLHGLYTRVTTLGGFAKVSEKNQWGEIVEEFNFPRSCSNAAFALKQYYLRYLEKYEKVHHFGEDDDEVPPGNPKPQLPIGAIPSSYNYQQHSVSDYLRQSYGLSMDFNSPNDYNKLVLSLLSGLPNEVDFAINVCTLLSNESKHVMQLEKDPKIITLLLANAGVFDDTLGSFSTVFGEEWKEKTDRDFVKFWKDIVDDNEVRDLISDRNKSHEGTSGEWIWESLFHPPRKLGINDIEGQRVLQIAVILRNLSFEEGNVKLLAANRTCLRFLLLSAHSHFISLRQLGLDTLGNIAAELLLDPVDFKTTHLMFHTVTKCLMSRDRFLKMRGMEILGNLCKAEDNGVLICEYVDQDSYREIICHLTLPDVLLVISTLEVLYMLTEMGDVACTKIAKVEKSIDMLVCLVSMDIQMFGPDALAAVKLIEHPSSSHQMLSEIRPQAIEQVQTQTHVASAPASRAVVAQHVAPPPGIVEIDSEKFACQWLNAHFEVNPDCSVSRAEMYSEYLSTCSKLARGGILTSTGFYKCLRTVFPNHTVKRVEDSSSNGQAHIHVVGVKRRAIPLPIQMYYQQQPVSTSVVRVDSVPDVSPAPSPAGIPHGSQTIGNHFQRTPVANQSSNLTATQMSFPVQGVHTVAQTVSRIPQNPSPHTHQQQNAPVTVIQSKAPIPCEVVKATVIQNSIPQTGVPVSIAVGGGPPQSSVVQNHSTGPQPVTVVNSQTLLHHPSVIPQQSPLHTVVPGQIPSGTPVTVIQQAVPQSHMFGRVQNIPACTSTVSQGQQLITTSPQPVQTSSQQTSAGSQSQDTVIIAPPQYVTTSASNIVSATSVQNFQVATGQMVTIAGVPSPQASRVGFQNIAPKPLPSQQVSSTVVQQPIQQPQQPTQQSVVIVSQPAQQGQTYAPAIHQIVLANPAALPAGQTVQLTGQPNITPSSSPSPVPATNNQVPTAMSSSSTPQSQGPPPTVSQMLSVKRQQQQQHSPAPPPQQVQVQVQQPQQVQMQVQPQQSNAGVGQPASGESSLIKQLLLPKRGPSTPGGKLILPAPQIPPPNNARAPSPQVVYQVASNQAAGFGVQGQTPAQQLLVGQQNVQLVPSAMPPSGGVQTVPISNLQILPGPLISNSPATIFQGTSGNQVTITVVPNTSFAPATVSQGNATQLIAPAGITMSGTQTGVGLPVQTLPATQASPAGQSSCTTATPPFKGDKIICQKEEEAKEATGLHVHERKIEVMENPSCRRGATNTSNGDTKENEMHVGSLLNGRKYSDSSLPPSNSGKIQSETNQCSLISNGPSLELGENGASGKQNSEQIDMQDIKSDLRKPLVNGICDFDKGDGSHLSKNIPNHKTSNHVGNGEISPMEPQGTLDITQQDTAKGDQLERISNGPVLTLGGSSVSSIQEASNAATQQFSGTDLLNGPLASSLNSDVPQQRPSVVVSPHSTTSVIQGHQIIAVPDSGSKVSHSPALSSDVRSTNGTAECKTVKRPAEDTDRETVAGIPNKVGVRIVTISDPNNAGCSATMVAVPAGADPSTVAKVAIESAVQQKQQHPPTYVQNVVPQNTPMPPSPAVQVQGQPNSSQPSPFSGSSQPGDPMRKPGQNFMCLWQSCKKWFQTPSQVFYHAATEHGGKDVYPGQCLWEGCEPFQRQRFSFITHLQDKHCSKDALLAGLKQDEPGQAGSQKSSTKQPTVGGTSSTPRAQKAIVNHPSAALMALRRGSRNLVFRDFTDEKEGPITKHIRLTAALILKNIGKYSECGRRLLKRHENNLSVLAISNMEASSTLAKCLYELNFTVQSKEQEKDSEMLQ
UniProt Q86XL3: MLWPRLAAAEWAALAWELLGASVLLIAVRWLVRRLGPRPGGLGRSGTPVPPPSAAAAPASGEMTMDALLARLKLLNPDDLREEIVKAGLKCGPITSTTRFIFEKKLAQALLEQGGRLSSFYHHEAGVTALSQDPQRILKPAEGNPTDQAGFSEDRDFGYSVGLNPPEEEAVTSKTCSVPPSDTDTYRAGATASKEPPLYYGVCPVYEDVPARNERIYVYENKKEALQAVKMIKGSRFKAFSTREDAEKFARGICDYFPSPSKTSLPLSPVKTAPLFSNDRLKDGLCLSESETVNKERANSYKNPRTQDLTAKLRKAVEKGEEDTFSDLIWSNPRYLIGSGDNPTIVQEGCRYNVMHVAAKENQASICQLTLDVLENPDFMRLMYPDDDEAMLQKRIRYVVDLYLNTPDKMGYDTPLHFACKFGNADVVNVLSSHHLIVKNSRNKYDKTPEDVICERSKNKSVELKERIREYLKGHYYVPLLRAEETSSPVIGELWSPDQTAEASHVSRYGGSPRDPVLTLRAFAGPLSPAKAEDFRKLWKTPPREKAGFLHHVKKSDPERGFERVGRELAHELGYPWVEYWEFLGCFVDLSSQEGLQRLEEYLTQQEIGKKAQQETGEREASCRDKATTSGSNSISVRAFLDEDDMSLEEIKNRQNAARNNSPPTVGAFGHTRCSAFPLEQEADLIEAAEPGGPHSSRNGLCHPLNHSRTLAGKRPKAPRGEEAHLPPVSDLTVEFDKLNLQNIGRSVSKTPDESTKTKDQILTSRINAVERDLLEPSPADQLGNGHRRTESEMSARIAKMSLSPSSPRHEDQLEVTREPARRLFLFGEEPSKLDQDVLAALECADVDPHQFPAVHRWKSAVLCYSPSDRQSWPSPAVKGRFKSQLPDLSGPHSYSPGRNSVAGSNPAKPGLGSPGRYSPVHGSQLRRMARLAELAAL
UniProt P61966: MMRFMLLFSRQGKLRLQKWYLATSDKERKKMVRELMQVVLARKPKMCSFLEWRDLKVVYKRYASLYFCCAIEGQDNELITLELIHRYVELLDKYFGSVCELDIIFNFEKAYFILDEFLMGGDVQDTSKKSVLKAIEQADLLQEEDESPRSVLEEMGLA
UniProt Q9NWX5, 135-156: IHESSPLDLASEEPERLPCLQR
UniProt P49407: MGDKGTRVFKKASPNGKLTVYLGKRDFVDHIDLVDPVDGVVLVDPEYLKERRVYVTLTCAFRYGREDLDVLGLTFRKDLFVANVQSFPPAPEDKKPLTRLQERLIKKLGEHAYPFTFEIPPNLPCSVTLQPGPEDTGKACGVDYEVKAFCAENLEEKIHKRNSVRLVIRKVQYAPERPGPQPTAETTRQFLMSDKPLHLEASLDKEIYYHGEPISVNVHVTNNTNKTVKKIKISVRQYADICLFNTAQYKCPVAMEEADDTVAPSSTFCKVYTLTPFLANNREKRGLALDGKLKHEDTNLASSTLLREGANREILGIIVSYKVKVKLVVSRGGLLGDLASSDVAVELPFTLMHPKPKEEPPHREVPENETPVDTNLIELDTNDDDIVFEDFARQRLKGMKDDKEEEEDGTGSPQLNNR
UniProt Q13795: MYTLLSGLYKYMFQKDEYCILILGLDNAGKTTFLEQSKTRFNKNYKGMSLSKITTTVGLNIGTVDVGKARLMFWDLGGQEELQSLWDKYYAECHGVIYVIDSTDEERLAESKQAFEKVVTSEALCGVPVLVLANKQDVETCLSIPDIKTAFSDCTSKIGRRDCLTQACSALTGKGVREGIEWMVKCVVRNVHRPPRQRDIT
UniProt Q9Y6D6: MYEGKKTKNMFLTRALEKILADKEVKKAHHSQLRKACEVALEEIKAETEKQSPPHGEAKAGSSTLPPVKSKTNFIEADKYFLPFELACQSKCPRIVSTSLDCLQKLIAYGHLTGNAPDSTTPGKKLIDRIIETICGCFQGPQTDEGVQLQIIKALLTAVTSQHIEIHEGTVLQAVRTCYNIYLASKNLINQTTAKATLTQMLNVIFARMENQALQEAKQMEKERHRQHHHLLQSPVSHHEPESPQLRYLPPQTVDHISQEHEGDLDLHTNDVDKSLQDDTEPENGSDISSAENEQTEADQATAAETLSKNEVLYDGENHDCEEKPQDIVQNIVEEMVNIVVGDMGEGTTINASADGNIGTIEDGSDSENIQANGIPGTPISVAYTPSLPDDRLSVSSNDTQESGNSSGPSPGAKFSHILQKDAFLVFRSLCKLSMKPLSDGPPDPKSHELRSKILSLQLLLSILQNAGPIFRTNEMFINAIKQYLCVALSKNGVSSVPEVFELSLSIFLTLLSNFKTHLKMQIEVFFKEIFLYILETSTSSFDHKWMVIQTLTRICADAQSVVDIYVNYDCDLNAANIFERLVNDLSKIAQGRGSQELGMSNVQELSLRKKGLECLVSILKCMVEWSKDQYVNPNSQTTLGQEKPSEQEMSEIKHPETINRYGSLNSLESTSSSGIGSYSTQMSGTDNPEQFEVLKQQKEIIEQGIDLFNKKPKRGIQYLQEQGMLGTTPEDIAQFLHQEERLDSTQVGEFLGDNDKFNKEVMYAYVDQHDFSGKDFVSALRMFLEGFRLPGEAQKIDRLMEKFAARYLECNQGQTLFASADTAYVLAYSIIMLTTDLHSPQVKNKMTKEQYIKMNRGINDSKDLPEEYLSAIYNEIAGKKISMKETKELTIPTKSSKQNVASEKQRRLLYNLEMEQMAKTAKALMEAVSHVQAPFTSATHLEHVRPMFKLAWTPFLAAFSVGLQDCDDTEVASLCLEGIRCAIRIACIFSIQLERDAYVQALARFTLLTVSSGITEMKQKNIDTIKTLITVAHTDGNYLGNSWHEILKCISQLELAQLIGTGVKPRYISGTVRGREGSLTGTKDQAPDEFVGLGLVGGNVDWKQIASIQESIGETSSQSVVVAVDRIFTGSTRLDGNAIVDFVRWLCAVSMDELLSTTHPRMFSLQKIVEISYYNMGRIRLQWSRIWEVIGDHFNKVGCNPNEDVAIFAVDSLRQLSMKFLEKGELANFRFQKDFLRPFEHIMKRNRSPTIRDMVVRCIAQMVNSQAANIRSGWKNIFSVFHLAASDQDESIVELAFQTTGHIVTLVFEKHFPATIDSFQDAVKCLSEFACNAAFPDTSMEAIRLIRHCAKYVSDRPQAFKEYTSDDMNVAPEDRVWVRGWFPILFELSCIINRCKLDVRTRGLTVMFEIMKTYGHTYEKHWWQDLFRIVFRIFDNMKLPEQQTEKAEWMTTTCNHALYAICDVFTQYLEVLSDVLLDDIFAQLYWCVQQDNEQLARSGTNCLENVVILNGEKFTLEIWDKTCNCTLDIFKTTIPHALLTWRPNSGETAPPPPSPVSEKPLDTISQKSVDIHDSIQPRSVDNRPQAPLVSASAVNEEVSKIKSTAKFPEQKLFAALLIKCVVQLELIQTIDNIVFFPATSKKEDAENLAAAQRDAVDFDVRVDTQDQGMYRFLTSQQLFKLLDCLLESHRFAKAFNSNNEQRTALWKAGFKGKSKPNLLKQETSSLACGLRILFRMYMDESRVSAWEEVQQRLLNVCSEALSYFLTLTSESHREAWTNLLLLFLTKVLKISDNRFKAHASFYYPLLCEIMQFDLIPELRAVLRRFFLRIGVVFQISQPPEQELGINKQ
UniProt Q9NQW6: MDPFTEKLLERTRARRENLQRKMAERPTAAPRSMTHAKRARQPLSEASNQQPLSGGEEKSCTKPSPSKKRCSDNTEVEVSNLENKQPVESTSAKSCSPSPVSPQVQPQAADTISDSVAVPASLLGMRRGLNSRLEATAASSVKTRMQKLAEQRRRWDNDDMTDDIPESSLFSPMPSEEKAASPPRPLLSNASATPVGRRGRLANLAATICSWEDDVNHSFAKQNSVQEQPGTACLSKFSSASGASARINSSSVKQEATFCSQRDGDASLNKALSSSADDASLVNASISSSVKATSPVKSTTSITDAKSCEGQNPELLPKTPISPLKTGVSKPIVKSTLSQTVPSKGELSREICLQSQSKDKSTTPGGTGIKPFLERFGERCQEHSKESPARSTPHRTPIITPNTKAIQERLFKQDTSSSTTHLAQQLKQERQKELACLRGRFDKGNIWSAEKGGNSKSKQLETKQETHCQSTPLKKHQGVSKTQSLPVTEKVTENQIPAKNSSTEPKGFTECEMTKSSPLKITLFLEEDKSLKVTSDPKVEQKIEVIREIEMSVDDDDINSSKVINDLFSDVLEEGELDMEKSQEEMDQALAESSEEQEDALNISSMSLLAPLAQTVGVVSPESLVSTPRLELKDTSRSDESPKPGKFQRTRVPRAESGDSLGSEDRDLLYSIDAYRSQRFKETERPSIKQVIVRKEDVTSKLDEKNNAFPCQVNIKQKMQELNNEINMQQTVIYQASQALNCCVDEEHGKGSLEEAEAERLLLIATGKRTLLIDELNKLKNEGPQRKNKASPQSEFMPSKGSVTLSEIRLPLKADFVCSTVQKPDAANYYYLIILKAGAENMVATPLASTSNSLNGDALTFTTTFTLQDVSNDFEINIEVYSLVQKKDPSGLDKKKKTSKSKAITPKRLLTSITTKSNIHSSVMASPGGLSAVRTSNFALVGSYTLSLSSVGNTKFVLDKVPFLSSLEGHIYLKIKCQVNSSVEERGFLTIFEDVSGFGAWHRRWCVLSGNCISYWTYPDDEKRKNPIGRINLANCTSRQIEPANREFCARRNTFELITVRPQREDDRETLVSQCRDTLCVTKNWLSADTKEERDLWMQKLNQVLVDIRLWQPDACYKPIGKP
UniProt P07741, 123-145: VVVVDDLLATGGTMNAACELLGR

[2] = compound: ClCC(=O)N[C@H]1CCCc2ccccc12; assay: as above; settings: treatment time: 4 h, cell line lysate: HEK293T
Method: as §1

| Target | log2 mean competition ratio ([1]; 50 µM) | log2 mean competition ratio ([1]; 200 µM) | log2 mean competition ratio ([2]; 50 µM) | log2 mean competition ratio ([2]; 200 µM) |
| --- | --- | --- | --- | --- |
| ARID2 C1362 (UniProt Q68CP9) | 0.267 | 0.121 | -0.319 | -0.0452 |
| ANKRD11 C2359 (UniProt Q6UB99) | 0.0313 | -0.472 | 0.217 | 0.0282 |
| APAF1 C8 (UniProt O14727) | 0.147 | -0.118 | -0.192 | -0.177 |
| ANKRD11 C818 (UniProt Q6UB99) | -0.0951 | 0.0816 | -0.209 | -0.142 |
| ANKLE2 C91 (UniProt Q86XL3) | 0.194 | -0.0406 | 0.0855 | -0.134 |
| ARID2 C1512 (UniProt Q68CP9) | -0.176 | 0.0831 | -0.0173 | 0.438 |
| ARHGEF6 C119 (UniProt Q15052) | -0.176 | 0.0742 | -0.272 | -0.00564 |
| AP1S1 C47 (UniProt P61966) | 0.461 | -0.0288 | 0.159 | 0.254 |
| ANKRD16 C194 (UniProt Q6P6B7) | 0.244 | -0.112 | 0.336 | 0.0582 |
| AP2B1 C144 (UniProt P63010) | -0.148 | -0.183 | 0.155 | -0.0423 |
| APBB2 C446 (UniProt Q92870) | -0.0555 | 0.0954 | 0.334 | 0.0693 |
| ASB6 C153 (UniProt Q9NWX5) | 0.0932 | 0.789 | 0.0529 | 0.769 |
| ARID2 C382 (UniProt Q68CP9) | -0.0362 | 0.0746 | -0.0516 | 0.0851 |
| ARPC2 C120 (UniProt O15144) | 0.395 | 0.239 | -0.0769 | 0.443 |
| ARRB1 C150 (UniProt P49407) | -0.143 | 0.119 | -0.69 | -0.0506 |
| ARHGEF40 C1282 (UniProt Q8TER5) | 0.305 | -0.0792 | -0.184 | 0.0211 |
| ARFRP1 C154 (UniProt Q13795) | -0.199 | 0.26 | -0.0752 | 0.0425 |
| ARMC8 C275 | -0.0261 | 0.227 | 0.0504 | 0.429 |
| ARFGEF1 C1729 (UniProt Q9Y6D6) | 0.00144 | 0.15 | 0.164 | 0.0936 |
| ARID3A C327 (UniProt Q99856) | 0.229 | -0.232 | 0.157 | -0.187 |
| ARL5B C132 (UniProt Q96KC2) | -0.0434 | 0.205 | -0.299 | 0.466 |
| ARPC1B C227 (UniProt O15143) | -0.122 | 0.306 | -0.144 | 0.0102 |

| Target | log2 mean competition ratio ([1]; 50 µM) | log2 mean competition ratio ([1]; 200 µM) | log2 mean competition ratio ([2]; 50 µM) | log2 mean competition ratio ([2]; 200 µM) |
| --- | --- | --- | --- | --- |
| ARHGEF28 C783 | -0.0511 | -0.149 | -0.421 | 0.138 |
| AP2A1 C492 (UniProt O95782) | -0.0049 | -0.0283 | -0.203 | -0.179 |
| ARHGEF11 C402 (UniProt O15085) | 0.299 | -0.0468 | 0.318 | -0.075 |
| ANLN C1076 (UniProt Q9NQW6) | -0.0446 | 0.645 | -0.0892 | 0.667 |
| ANKRD16 C99 (UniProt Q6P6B7) | 0.0641 | -0.0259 | -0.174 | 0.305 |
| ARRB1 C140 (UniProt P49407) | -0.312 | -0.257 | 0.058 | -0.126 |
| ANKRD50 C639 (UniProt Q9ULJ7) | -0.246 | -0.036 | -0.119 | -0.0923 |
| ASMTL C130 (UniProt O95671) | 0.805 | -0.00615 | 1.01 | -0.171 |
| ARMCX3 C52 (UniProt Q9UH62) | -0.546 | -0.245 | -0.387 | 0.52 |
| ASIC1 C497 | 0.245 | 0.0895 | 0.177 | 0.0587 |
| ARHGEF26 C533 | 0.0301 | -0.07 | 0.0672 | 0.0391 |
| APRT C153 (UniProt P07741) | -0.582 | -0.308 | 0.438 | -0.242 |
| APAF1 C203 (UniProt O14727) | -0.139 | -0.0428 | 0.166 | 0.0169 |
| APRT C140 (UniProt P07741) | 0.0191 | 0.219 | -0.0353 | -0.308 |
| ARIH1 C347 (UniProt Q9Y4X5) | -0.45 | -0.312 | -0.475 | -0.43 |
| ANKLE2 C454 (UniProt Q86XL3) | -0.193 | -0.031 | -0.127 | 0.195 |
| ARHGEF17 C1479 | -0.155 | 0.193 | -0.255 | 0.0812 |
| ANKS1A C651 (UniProt Q92625) | -0.0113 | 0.0293 | 0.214 | 0.0359 |
| ANLN C234 (UniProt Q9NQW6) | -0.113 | 0.168 | 0.146 | 0.253 |
| AP3B1 C507 (UniProt O00203) | -0.148 | 0.167 | 0.271 | 0.212 |
| ARID5B C393 | 0.298 | 0.33 | 0.104 | 0.192 |

Single records, from the list above. Values in the order: log2 mean competition ratio ([1]; 50 µM) | log2 mean competition ratio ([1]; 200 µM) | log2 mean competition ratio ([2]; 50 µM) | log2 mean competition ratio ([2]; 200 µM)
ANKRD50 C639 (UniProt Q9ULJ7) in the list: -0.246 | -0.036 | -0.119 | -0.0923
AP2A1 C492 (UniProt O95782) in the list: -0.0049 | -0.0283 | -0.203 | -0.179
ANLN C234 (UniProt Q9NQW6) in the list: -0.113 | 0.168 | 0.146 | 0.253
